Laboratory results reported in the supplement of paper PMC10735217.
“And” between values parts separate entries of the source, which are not always exact repeats. Equal values may be shown once. Where a name gives a salt, the structure may show the parent alone. This is one part of the list. This data set is noisy: repeats of one test often differ as much as different tests do.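 The human kidney-derived cells carry a stably integrated construct of eight TEAD-binding elements driving luciferase, read by luminescence in a drug-repurposing library screen. A compound counts as a hit when its signal is more than five robust Z scores above the plate mean.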

System: HEK293A TEAD-LUC reporter
Test: TEAD-luciferase reporter activity (YAP activation), robust Z score vs plate; higher = stronger YAP/TEAD activation
Conditions: 24 h

Structure (SMILES)	TEAD-luciferase reporter activity (compound concentration: 200 nM)	TEAD-luciferase reporter activity (compound concentration: 2 uM)	TEAD-luciferase reporter activity (compound concentration: 10 uM)
NC(=O)c1ccc2nc(-c3ccc(C4(N)CCC4)cc3)c(-c3ccccc3)n2n1	inactive: -0.872	inactive: 2.14	inactive: 1.33
CC(=O)CCCCn1c(=O)c2c(ncn2C)n(C)c1=O	inactive: 0.341	–	inactive: 1.53
CC(=O)CCCCn1c(=O)c2c(ncn2C)n(C)c1=O [Pentoxifylline]	–	inactive: -0.429	–
O=C(Nc1cccc2c(=O)cc(-c3nnn[nH]3)oc12)c1ccc(OCCCCc2ccccc2)cc1 [Pranlukast hydrate]	–	inactive: -0.852	–
O=C(Nc1cccc2c(=O)cc(-c3nnn[nH]3)oc12)c1ccc(OCCCCc2ccccc2)cc1 [pranlukast]	inactive: -1.11	inactive: -1.21	inactive: 1.87
Cc1ccccc1CNC(=O)[C@@H]1N(C(=O)C(O)C(Cc2ccccc2)NC(=O)c2cccc(O)c2C)CSC1(C)C (some centres not stated)	inactive: -1.32	inactive: -0.846	inactive: 0.575
CCC(O)COc1ccc2nc(C(=O)Nc3nc4ccc(-c5cc(F)cc(Cl)c5)cc4[nH]3)cn2n1 (configuration not stated)	inactive: -0.131 and inactive: -1.1	inactive: 0.699 and inactive: -0.625	inactive: -0.684 and inactive: -1.01
CC(C)CC(NC(=O)OCc1ccccc1)C(=O)NC(C(=O)NCC(=O)C=[N+]=[N-])C(C)C (configuration not stated)	inactive: -2.56	inactive: -0.754	inactive: -0.708
CC(C)(C)NCC(O)COc1cccc2nc(O)[nH]c12 (single isomer, unassigned; (-))	inactive: -2.26	inactive: -0.721	inactive: -1.43
CC(=O)NCCC(=O)N1Cc2ccccc2CC2(CCCCN2CC2CCNCC2)C1 (configuration not stated)	inactive: 0.186	–	inactive: -0.0624
O=C(O)c1cn(C2CC2)c2c(Cl)c(N3C[C@@H]4CCCN[C@@H]4C3)c(F)cc2c1=O	inactive: 1.8	inactive: 0.304	inactive: -0.51
CN(C)CCC(O)(P(=O)(O)O)P(=O)(O)O [olpadronic acid]	inactive: 0.0336	inactive: 0.162	inactive: 2.12
CSC(=O)[C@@]1(O)[C@@H](C)C[C@H]2[C@@H]3CCC4=CC(=O)C=C[C@]4(C)[C@@]3(F)[C@@H](O)C[C@@]21C [timobesone]	inactive: -1.12	inactive: 1.95	inactive: -0.385
CN1CCC[C@@H]1Cc1c[nH]c2ccc(CCS(=O)(=O)c3ccccc3)cc12 [Eletriptan Hydrobromide]	inactive: -0.328	inactive: -0.896	inactive: -0.329
COc1cc(N)c(Cl)cc1C(=O)NC1CCN2C(C)CCCC2C1 (configuration not stated)	inactive: -1.1	inactive: -0.664	inactive: -0.144
Cc1cc(C)nc(N2CCN(c3ccc(NC(=O)C(=O)c4c(-c5ccccc5)cc(C)n4C)cc3)CC2)c1	inactive: 0.439	inactive: -1.55	inactive: -0.711
CCNCCCCNCCCCNCCCCNCC	inactive: 0.534	inactive: 0.581	inactive: 2.03
COC(=O)NCCc1ccc(OCC(O)CNC(C)C)cc1 (configuration not stated) [Pamatolol sulfate]	inactive: -1.34	inactive: -0.482	inactive: 0.944
Cc1nc(OCCCCCN2CCCCC2)cc(-c2ccc(F)cc2)n1	–	inactive: -1.6	–
Cc1nc(OCCCCCN2CCCCC2)cc(-c2ccc(F)cc2)n1 [enecadin]	inactive: 0.0951	inactive: 3.6	inactive: -0.183
C=CC[C@H](C(=O)NO)[C@@H](CC(C)C)C(=O)N[C@@H](Cc1ccccc1)C(=O)NC	inactive: -1.16	inactive: -1.11	inactive: -1.25
CN1CCN(C(=O)c2ccc(CN3CCOCC3)cc2)CC1	inactive: -0.651	inactive: -0.707	inactive: 3.15
CC(C)(C)c1nc(-c2cccc(NS(=O)(=O)c3c(F)cccc3F)c2F)c(-c2ccnc(N)n2)s1 [Dabrafenib mesylate]	inactive: -0.864	inactive: -1.49	inactive: 0.242
CNC(=O)c1cc2c(Oc3ccc(NC(=S)NC(=O)Cc4ccccc4)cc3F)ccnc2cc1OC	inactive: 0.0101	inactive: -2.05	inactive: 0.585
CCCC(=O)Nc1ccc(Cc2ccccn2)c([N+](=O)[O-])c1	inactive: 0.349	inactive: -0.915	inactive: 1.05

Retrieved one by one from above:
Structure (SMILES)	TEAD-luciferase reporter activity (compound concentration: 200 nM)	TEAD-luciferase reporter activity (compound concentration: 2 uM)	TEAD-luciferase reporter activity (compound concentration: 10 uM)
CC(=O)NCCC(=O)N1Cc2ccccc2CC2(CCCCN2CC2CCNCC2)C1 (configuration not stated)	inactive: 0.186	–	inactive: -0.0624
COC(=O)NCCc1ccc(OCC(O)CNC(C)C)cc1 (configuration not stated) [Pamatolol sulfate]	inactive: -1.34	inactive: -0.482	inactive: 0.944
